The test concerns the target T1, ETV7 (human) (UniProt Q9Y603).
T1 sequence: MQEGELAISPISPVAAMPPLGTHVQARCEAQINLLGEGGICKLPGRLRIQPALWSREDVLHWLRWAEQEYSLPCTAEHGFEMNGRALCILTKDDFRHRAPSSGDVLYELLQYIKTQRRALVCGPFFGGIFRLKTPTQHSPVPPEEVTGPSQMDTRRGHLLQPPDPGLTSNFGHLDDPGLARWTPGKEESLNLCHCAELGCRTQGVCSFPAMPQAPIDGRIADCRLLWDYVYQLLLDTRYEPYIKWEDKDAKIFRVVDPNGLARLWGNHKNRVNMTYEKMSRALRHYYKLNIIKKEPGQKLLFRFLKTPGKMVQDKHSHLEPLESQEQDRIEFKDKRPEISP
The test is described as follows: co-IP; two-way co-immunoprecipitation from lysates of PE and NPE tumors (NP tumors as control); 750 μg protein, 2 μg antibody overnight at 4 °C, Protein G Dynabeads, four washes with CHAPS lysis buffer (0.3% CHAPS, 120 mM NaCl, pH 7.4); Western blot. On the technique in general: Immunoblotting shows a protein as a band on a membrane.

Sequences of proteins named here, by UniProt entry; tags and fusion partners are left off. A change or cut given only in a name is not applied to a line headed by its entry.
UniProt P63330: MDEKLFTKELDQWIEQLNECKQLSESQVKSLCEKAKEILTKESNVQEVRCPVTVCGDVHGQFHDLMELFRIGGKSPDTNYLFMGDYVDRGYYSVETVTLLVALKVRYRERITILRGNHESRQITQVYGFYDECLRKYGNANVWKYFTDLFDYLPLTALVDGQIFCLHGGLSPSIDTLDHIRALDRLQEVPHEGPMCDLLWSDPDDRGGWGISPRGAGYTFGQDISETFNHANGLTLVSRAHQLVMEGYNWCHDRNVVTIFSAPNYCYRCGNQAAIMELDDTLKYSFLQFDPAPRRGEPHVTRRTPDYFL

Results are given in words; binding and its absence hold for the method and conditions named. Binding seen in cells or lysates may run through a third protein. Binding can be weak; no strength is given.

For the substance PP2Ac (from UniProt P63330), the binding result is on record as “binds”.

The record behind these values is paper PMC9489700.
